Data as given in PubChem BioAssay AID1259254 (NCATS, 2017).
Purpose: 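Finding genes that stop cells copying their DNA twice in one cycle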 (primary screen). System: human HCT116 colorectal cancer cells. Reagent: single siRNA against human genes. Time to read-out: 3 days. Detection: 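Nuclei stained with Hoechst and imaged; cell-cycle phase assigned by DNA content; G2 share scaled per plate, non-targeting siRNA 0%, GMNN siRNA 100%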. Direction: G2 robust z-score and G2 cells, % of GMNN control: higher = more G2 cells, more excess DNA replication. Rule for the call: 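Active siRNAs have a G2 robust z of 5 or more median absolute deviations over the median, which in these data means about 38% or higher of GMNN control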.
This is an unselected part of about 59,000 reagents tested. About 1,550 of them (2.6%) were called active. 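G2 share is only a proxy for re-replication; each gene was hit by three separate siRNAs, and active genes were retested.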 A number with no mark means an inactive call. The numbers tell different reagents against one gene apart. Further read-outs or replicates are left out here. Not stated in the record: the amount of reagent.

What did the screen give for NFATC2 (nuclear factor of activated T cells 2) #1?
G2 robust z-score: -0.869; G2 cells, % of GMNN control: -3.14

What is on record for NFATC2 (nuclear factor of activated T cells 2) #2?
G2 robust z-score: 1.27; G2 cells, % of GMNN control: 11.9

With NFATC2 (nuclear factor of activated T cells 2) #3, what does the deposit list?
G2 robust z-score: 1.45; G2 cells, % of GMNN control: 13.2

How did the screen score RDX (radixin) #1?
G2 robust z-score: -0.495; G2 cells, % of GMNN control: -0.518

With RDX (radixin) #2, how do the results read?
G2 robust z-score: -0.995; G2 cells, % of GMNN control: -4.03

For RDX (radixin) #3, how do the results read?
G2 robust z-score: 0.0623; G2 cells, % of GMNN control: 3.41

What is on record for ONECUT2 (one cut homeobox 2) #1?
G2 robust z-score: -0.343; G2 cells, % of GMNN control: 0.551

For ONECUT2 (one cut homeobox 2) #2, how do the results read?
G2 robust z-score: -1.12; G2 cells, % of GMNN control: -4.94

For ONECUT2 (one cut homeobox 2) #3, how do the results read?
G2 robust z-score: -1.55; G2 cells, % of GMNN control: -7.96

Which result is listed for KHDRBS2 #1?
G2 robust z-score: 6.7 (active); G2 cells, % of GMNN control: 50.1

What did the screen give for KHDRBS2 #2?
G2 robust z-score: 1.32; G2 cells, % of GMNN control: 12.2

What is on record for KHDRBS2 #3?
G2 robust z-score: -0.921; G2 cells, % of GMNN control: -3.51

What is on record for KPNA1 (karyopherin subunit alpha 1) #1?
G2 robust z-score: -0.468; G2 cells, % of GMNN control: -0.324

For KPNA1 (karyopherin subunit alpha 1) #2, what does the deposit list?
G2 robust z-score: 6.9 (active); G2 cells, % of GMNN control: 51.5

Which result is listed for KPNA1 (karyopherin subunit alpha 1) #3?
G2 robust z-score: -1.12; G2 cells, % of GMNN control: -4.94

For DPF3 (double PHD fingers 3) #1, what was measured?
G2 robust z-score: -0.381; G2 cells, % of GMNN control: 0.289

What did the screen give for DPF3 (double PHD fingers 3) #2?
G2 robust z-score: 3.48; G2 cells, % of GMNN control: 27.5

With DPF3 (double PHD fingers 3) #3, how do the results read?
G2 robust z-score: -0.873; G2 cells, % of GMNN control: -3.17

What is on record for GNRH2 (gonadotropin releasing hormone 2) #1?
G2 robust z-score: 1.31; G2 cells, % of GMNN control: 12.2

For GNRH2 (gonadotropin releasing hormone 2) #2, how do the results read?
G2 robust z-score: -0.0938; G2 cells, % of GMNN control: 2.31

For GNRH2 (gonadotropin releasing hormone 2) #3, how do the results read?
G2 robust z-score: 1.31; G2 cells, % of GMNN control: 12.2

What did the screen give for RNF183 (ring finger protein 183) #1?
G2 robust z-score: 2.11; G2 cells, % of GMNN control: 17.8

For RNF183 (ring finger protein 183) #2, what was measured?
G2 robust z-score: 1.61; G2 cells, % of GMNN control: 14.3

How did the screen score RNF183 (ring finger protein 183) #3?
G2 robust z-score: -0.584; G2 cells, % of GMNN control: -1.14

Sorted by “G2 cells, % of GMNN control” (ascending): 2 of the entries above.
GNRH2 (gonadotropin releasing hormone 2) #2 | G2 robust z-score: -0.0938; G2 cells, % of GMNN control: 2.31
GNRH2 (gonadotropin releasing hormone 2) #3 | G2 robust z-score: 1.31; G2 cells, % of GMNN control: 12.2
